Patent publication US20080045535A1, “Prokineticin 2 receptor antagonists” (priority 2005, published 2008)

Sequences of proteins named here, by UniProt entry; tags and fusion partners are left off.
UniProt Q8TCW9, whole entry: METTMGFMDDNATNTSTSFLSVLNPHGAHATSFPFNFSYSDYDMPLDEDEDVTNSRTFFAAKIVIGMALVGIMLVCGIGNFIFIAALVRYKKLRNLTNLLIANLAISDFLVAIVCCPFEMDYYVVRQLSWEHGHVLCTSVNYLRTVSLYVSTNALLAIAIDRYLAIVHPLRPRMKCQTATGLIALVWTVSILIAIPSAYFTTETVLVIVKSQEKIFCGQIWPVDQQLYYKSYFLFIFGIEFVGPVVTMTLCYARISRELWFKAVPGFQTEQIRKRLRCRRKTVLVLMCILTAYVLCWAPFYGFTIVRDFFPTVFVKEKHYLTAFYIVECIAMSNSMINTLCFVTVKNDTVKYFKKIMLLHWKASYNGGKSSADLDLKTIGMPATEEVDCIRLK

Target: HEK 293 GPR73 (prokineticin 1 receptor) expressing cells (Homo sapiens, UniProt Q8TCW9)
Assay: PK1 functional assay: screening for PK1 antagonists on the FLIPR (calcium fluorescence)
Conditions: read-out: Ca^2+ Mobilization IC50, HEK 293 GPR73 cells, PK1 ligand at EC50, multiple values = repeat tests

**Q.** Which IC50 does the source give for `CNC(=N)NCCNc1nc(=O)n(Cc2ccc(Cl)c(Cl)c2)c(=O)n1Cc1ccc(OC)cc1` here?
**A.** 11 nM and 46 nM

Some entries of the source have several records that differ or are many. The list is limited to them. The source may hold further records. The records of an entry appear to be repeats (runs, samples, wells or individuals).
